These are yes or no findings as the source states them, for the method shown. Some binding calls cover weakened binding; strength is not graded here.
Target: GST-LBD PR fusion protein (UniProt P06401)
Assay: FRET, RPE-streptavidin on biotinylated NR-box peptide and APC anti-GST on GST-LBD PR

Sequences of proteins named here, by UniProt entry; tags and fusion partners are left off. Residues count along the entry.
UniProt P06401, residues 675-933: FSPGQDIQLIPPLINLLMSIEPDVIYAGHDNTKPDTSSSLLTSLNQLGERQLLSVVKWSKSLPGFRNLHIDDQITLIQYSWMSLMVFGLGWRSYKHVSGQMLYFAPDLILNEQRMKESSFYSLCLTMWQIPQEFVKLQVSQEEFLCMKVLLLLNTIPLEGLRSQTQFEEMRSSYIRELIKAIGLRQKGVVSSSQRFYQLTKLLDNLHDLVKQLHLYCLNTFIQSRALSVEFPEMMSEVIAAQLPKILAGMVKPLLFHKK

binding	Binder
binds	AVMDGAPDSALRQLLQKPMEPPAPA (labelled with biotin (position not given))
binds	FEAKGDVMVALEMLLLRKPVRLKCH (labelled with biotin (position not given))

— US20080044436A1, “Method for Screening and Compositions for Treating Cancers” (priority 2004, published 2008)
